Experimental data taken from the supplement of paper PMC10849652.
Some of the results follow.

Chains of the proteins cited; added tags and fusions are not shown. Lines headed by an entry give the natural chain unless they say otherwise; changes in a name come on top.
UniProt O00506, whole entry, looked up: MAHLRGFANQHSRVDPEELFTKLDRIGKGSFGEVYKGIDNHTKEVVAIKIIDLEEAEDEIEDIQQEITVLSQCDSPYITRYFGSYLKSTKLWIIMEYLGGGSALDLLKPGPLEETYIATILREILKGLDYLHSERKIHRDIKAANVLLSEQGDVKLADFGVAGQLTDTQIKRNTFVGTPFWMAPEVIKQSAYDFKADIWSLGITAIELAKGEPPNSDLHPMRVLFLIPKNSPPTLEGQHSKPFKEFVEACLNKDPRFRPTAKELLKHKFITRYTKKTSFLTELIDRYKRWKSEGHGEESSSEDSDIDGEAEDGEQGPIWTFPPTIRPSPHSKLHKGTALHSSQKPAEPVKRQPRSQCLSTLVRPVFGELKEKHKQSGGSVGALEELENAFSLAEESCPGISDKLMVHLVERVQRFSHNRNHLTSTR
UniProt Q8N0X7: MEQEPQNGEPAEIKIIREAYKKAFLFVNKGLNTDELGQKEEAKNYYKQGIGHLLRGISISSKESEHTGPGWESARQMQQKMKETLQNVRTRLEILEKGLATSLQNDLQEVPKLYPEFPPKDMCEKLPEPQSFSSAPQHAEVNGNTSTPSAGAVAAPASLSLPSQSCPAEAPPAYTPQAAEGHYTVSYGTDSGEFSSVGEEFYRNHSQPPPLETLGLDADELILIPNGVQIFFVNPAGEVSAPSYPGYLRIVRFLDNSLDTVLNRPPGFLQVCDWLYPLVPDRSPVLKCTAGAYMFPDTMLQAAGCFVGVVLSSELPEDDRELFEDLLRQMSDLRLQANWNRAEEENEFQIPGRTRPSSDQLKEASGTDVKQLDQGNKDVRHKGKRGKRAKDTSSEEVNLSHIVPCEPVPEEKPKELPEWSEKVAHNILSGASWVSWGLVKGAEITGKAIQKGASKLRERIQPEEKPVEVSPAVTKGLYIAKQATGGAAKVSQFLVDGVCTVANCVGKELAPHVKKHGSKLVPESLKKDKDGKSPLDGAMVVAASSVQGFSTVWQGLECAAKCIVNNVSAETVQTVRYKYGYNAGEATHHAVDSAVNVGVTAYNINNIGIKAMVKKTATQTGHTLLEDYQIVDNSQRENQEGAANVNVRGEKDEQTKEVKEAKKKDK
UniProt Q8TCT7: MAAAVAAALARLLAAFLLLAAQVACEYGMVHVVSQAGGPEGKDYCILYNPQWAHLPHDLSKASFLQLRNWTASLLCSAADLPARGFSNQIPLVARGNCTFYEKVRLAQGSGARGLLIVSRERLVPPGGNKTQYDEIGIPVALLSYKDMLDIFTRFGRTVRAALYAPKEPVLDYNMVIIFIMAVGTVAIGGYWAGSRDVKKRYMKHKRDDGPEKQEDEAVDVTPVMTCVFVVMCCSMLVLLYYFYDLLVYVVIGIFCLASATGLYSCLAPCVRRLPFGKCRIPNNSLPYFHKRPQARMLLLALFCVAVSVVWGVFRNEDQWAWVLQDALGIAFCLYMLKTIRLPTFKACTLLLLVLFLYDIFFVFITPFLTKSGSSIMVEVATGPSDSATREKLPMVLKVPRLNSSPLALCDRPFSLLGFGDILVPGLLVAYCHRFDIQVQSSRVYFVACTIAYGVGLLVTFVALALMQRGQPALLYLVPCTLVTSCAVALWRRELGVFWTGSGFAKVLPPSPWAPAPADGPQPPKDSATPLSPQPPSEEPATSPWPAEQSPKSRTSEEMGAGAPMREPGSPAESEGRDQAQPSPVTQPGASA
UniProt P15907: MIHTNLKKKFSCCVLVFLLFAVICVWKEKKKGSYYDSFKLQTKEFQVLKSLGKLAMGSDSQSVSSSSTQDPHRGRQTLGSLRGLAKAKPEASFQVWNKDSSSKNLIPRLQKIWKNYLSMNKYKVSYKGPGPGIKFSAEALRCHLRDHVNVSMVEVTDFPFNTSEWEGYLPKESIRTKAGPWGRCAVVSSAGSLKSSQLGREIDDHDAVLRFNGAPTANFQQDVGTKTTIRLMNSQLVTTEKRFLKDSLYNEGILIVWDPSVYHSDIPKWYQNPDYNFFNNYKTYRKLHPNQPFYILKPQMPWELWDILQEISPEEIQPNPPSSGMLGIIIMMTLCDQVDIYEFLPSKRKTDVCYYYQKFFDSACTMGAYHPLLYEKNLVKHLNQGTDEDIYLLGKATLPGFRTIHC
UniProt Q13586, whole entry, looked up: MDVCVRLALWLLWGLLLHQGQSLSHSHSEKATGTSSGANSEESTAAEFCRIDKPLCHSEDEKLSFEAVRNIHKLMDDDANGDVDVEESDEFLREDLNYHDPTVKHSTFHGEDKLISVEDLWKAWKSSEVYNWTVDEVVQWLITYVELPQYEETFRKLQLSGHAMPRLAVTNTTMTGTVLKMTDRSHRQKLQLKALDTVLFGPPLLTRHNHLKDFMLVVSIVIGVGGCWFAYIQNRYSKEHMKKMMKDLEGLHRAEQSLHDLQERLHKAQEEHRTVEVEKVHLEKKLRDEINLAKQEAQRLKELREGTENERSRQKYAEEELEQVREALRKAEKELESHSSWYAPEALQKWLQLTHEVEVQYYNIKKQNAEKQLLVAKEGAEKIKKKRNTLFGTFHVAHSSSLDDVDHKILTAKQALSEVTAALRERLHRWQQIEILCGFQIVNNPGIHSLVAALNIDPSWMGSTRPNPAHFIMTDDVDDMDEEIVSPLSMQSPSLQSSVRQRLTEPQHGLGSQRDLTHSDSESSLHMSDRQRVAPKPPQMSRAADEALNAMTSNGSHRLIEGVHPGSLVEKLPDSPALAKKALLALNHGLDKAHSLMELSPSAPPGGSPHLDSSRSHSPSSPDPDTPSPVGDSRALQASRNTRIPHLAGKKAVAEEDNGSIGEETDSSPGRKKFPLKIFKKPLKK
UniProt Q9UBP0: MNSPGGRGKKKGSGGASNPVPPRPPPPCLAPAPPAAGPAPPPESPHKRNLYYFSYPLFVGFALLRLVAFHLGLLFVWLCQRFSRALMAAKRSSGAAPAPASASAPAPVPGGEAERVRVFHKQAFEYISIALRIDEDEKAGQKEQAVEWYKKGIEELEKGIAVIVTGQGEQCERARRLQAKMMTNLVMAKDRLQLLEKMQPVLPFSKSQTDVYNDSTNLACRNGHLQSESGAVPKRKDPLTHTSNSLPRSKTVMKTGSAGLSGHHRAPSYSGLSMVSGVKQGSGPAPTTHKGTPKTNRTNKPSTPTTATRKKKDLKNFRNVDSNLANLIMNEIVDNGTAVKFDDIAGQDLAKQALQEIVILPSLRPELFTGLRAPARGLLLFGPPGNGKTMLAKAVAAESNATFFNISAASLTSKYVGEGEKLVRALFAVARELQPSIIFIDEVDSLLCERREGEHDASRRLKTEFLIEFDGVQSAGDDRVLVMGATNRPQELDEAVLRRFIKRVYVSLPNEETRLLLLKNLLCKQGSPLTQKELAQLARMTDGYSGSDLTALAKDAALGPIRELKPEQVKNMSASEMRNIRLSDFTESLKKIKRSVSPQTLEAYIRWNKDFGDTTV
UniProt Q9NYA1, whole entry, looked up: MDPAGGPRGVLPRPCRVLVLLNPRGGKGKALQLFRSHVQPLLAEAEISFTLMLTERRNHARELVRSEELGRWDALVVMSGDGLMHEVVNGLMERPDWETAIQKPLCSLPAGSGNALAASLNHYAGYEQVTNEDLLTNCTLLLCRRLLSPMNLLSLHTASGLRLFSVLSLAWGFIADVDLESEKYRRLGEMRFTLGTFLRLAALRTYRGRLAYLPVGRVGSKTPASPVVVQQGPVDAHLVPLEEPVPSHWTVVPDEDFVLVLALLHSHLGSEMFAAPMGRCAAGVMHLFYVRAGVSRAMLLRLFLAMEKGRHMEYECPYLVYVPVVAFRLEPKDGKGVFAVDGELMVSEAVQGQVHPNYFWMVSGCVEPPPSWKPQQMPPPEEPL
UniProt Q96SB4, whole entry, looked up: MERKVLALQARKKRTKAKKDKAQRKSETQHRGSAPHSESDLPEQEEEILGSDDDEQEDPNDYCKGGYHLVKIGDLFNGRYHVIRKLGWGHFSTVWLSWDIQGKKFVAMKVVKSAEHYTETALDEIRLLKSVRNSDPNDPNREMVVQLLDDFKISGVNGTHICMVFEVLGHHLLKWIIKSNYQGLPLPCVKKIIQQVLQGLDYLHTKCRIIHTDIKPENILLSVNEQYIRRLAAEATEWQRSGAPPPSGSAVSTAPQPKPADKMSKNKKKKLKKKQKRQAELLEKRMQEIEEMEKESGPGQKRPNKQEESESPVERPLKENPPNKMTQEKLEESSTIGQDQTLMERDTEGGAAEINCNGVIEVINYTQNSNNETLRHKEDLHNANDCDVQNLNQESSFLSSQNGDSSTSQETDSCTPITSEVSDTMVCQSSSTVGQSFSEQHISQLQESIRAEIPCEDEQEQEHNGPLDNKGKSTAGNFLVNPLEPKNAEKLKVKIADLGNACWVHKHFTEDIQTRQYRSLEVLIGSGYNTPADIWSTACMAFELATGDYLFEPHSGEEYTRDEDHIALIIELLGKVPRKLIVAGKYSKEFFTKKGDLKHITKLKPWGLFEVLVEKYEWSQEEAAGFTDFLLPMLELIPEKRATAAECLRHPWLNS
UniProt Q5M775: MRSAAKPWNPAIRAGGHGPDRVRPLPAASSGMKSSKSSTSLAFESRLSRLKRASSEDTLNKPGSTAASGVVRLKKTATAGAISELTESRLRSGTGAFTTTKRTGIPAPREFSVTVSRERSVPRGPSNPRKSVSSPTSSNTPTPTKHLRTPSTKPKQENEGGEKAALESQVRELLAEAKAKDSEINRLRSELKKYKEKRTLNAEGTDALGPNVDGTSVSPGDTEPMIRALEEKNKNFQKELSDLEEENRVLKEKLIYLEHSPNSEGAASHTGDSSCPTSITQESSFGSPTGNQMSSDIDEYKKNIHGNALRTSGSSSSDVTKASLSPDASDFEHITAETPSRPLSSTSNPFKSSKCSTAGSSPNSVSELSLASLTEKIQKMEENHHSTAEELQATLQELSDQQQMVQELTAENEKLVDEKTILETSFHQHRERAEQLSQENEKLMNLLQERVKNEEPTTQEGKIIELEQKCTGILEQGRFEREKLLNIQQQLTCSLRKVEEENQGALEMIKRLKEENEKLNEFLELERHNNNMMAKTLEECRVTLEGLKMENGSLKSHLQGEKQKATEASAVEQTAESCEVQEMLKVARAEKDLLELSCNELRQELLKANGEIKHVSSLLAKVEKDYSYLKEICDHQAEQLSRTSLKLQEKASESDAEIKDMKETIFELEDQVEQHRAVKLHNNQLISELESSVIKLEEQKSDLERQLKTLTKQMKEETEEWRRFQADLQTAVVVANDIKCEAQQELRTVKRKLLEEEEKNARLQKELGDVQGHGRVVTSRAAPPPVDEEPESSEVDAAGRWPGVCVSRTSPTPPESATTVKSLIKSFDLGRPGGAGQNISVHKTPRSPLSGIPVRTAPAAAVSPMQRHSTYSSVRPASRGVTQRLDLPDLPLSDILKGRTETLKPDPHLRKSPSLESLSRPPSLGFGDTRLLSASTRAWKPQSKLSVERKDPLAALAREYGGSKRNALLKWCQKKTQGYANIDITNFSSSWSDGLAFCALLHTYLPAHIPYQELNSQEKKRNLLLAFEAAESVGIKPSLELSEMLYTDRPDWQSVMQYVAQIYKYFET
UniProt Q16629: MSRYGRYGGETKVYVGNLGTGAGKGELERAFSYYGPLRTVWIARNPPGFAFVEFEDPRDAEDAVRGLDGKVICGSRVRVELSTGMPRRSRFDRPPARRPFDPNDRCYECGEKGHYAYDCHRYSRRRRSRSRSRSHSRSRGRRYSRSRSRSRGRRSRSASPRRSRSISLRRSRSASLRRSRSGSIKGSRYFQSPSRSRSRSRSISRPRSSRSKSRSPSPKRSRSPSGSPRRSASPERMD
UniProt P52630: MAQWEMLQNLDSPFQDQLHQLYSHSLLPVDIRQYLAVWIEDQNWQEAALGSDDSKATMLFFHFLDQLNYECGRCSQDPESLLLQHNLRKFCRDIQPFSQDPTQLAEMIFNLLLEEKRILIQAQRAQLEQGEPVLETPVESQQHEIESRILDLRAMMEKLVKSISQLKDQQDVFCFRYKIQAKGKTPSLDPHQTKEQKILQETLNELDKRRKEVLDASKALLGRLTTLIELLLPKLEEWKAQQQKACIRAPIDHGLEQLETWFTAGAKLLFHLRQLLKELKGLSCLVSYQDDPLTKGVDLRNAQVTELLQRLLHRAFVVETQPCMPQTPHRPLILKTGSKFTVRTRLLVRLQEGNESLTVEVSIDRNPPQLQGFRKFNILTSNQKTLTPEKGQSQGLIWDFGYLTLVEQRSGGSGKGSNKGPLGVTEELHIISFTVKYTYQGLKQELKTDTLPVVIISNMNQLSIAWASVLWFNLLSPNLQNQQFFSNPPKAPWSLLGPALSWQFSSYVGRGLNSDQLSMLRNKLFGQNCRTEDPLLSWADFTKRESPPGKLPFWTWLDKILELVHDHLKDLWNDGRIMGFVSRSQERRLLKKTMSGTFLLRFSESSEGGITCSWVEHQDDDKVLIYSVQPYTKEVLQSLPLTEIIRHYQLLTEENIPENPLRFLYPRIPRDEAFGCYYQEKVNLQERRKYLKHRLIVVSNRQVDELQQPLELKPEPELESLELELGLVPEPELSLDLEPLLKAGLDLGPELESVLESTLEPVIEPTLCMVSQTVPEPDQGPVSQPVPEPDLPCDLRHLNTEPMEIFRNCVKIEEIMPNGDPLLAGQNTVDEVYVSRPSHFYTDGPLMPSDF

What follows are targets tested with c1ccc([C@@H]2C[C@H]2NC2CCNCC2)cc1 (assay: log2 fold change, soluble protein after heating vs DMSO (PISA); higher = thermal stabilisation; K562 cells, 10 uM, 30 min; active = over 0.2 and 3.5 SD of the protein, either way, in both replicates (recomputed)).
Procedure, shortened: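 K562 cells (2×10^6 cells/mL) were treated with 10 μM compound for 30 min, and aliquots were heated for 3 min over 48°C-58°C. Pooled aliquots were extracted in PBS with 0.5% NP-40 at 4°C, and the supernatant after 21,000xg for 90 min was measured by TMTpro 16plex LC-MS/MS with channel sums equalised. Reported thermal stability, relative to control samples and from duplicates, is a log2 fold change.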

| Target | log2 fold change |
| --- | --- |
| SPATA33 isoform 2 (UniProt Q96N06) | inactive: 0.046 |
| SRC isoform 2 (UniProt P12931) | inactive: 0.003 |
| SPC24 (UniProt Q8NBT2) | inactive: -0.026 |
| SPG7 (UniProt Q9UQ90) | inactive: 0.01 |
| SSRP1 (UniProt Q08945) | inactive: -0.016 |
| STK25 (UniProt O00506) | inactive: -0.016 |
| SPART (UniProt Q8N0X7) | inactive: -0.002 |
| SRCAP (UniProt Q6ZRS2) | inactive: -0.136 |
| SPPL2B (UniProt Q8TCT7) | inactive: -0.022 |
| ST6GAL1 (UniProt P15907) | inactive: -0.006 |
| STIM1 (UniProt Q13586) | inactive: -0.019 |
| SQSTM1 (UniProt Q13501) | inactive: 0.012 |
| SPTAN1 isoform 2 (UniProt Q13813) | inactive: 0.064 |
| SPAST (UniProt Q9UBP0) | inactive: -0.085 |
| SPHK1 isoform 2 (UniProt Q9NYA1) | inactive: -0.018 |
| SRPK1 (UniProt Q96SB4) | inactive: 0.008 |
| SPECC1 (UniProt Q5M775) | inactive: 0.037 |
| SPTBN1 (UniProt Q01082) | inactive: 0.013 |
| SRSF7 (UniProt Q16629) | inactive: 0.055 |
| STIP1 isoform 2 (UniProt P31948) | inactive: -0.007 |
| SRPK2 isoform 2 (UniProt P78362) | inactive: 0 |
| STAT2 (UniProt P52630) | inactive: -0.077 |

2 records picked at random from the list so far:

| Target | log2 fold change |
| --- | --- |
| SRSF7 (UniProt Q16629) | inactive: 0.055 |
| SPART (UniProt Q8N0X7) | inactive: -0.002 |
